# According to patent US9011988B2, “Liquid-crystal compound, liquid-crystal composition, light absorption anisotropic film, and liquid-crystal display device” (Fujifilm Corporation, priority 2010, dated 2015):
# Test: Dichroic ratio and orientation order of light absorption anisotropic film
# Conditions: orientation order of the light absorption anisotropic film, S=(D-1)/(D+2) calculated from the dichroic ratio
row,Structure (SMILES),Order S
1,CCCCCCOc1ccc(N=Nc2ccc(C=Cc3cc(OCCOCCOCCOC)c(C=Cc4ccc(N=Nc5ccc(OCCCCCC)cc5)cc4)cc3OC)cc2)cc1 [A-3],0.94
2,CCCCCCOc1ccc(N=Nc2ccc(C=Cc3cc(OCCOCCOCCO)c(C=Cc4ccc(N=Nc5ccc(OCCCCCC)cc5)cc4)cc3OC)cc2)cc1 [A-4],0.93
3,CCCCCCCCCCCCCCCCCCOc1cc(C=Cc2ccc(N=Nc3ccc(OCCCCCC)cc3)cc2)c(OC)cc1C=Cc1ccc(N=Nc2ccc(OCCCCCC)cc2)cc1 [A-9],0.72
4,CCCCCCOc1ccc(N=Nc2ccc(C=Cc3cc(OCCOCCOCCOC)c(C=Cc4ccc(N=Nc5ccc(OCCCCCC)cc5)cc4)cc3OCCOCCOCCOC)cc2)cc1 [A-10],0.87
5,"CCCCCCOc1ccc(/C=C/c2ccc(/C=C/c3cc(OCCOCCOCCOCCOCCOCCO)c(/C=C/c4ccc(/C=C/c5ccc(OCCCCCC)cc5)cc4)cc3OC)cc2)cc1 [Comparative Compound 2, reference compound]",0.90
